Values quoted from earlier work in US8992977B2, “Multi-day delivery of biologically active substances” (Samos Pharmaceuticals, LLC, priority 2007, dated 2015).

Conditions: The Pharmacological Basis of Therapeutics 10th ed.; Physicians Desk Reference 58th Ed.; cited from earlier work

COc1cc2c(cc1OC)C(=O)C(CC1CCN(Cc3ccccc3)CC1)C2 (stereo not shown) [Donepezil]
half life: 60 h
